Results published in publication PMC12040169 (PLOS Biology, 2025).
This is one part of the list.

tested on: T1, CTL2-GFP (C. trachomatis L2/434/Bu, GFP-expressing); parameters: species or system HeLa; Intracellular C. trachomatis growth in HeLa cells, bulk GFP fluorescence relative to DMSO; settings: bulk GFP, single well; 28.5 h, 10 µM; inhibitor
T1 construct: L2/434/Bu, GFP-expressing

Structure (SMILES)	% of control remaining [%]
COc1ccc(Cn2nnnc2C(CC(C)C)N2CCC(C(N)=O)CC2)cc1 (stereo not shown) [CBK084783]	113.651
CCn1c(CNC(=O)c2cc(C(C)C)on2)nc2ccccc21 [CBK281393]	146.716
CC(NC(=O)c1cnc(-c2ccc(Cl)cc2)c(-c2ccc(O)cc2)c1)c1ccc(F)cc1 (stereo not shown) [CBK036751]	163.358
O=C(O)c1ccc(N2C(=O)CC(c3ccccc3)CC2=O)cc1 [CBK291169]	149.066
CCN(Cc1ncc[nH]1)[C@H]1CCO[C@@H](c2ccccc2-c2ccc(OC)cc2)C1 [CBK285842]	128.444
Cc1nn(C)cc1CN(Cc1ccccc1)CC1CCCO1 (stereo not shown) [CBK283264]	117.576
O=C(Cc1ccsc1)N1CCC2(CCCNC2)C1 (stereo not shown) [CBK137153C]	112.404
CCCn1c(C)nnc1CN(CC1CCCO1)C1CCCC1 (stereo not shown) [CBK304465]	184.549
CC(Sc1nc2ccc(Cl)cc2o1)C(=O)N1CCOCC1 (stereo not shown) [CBK305164]	122.09
COCc1cc(C)nc(SCC(=O)O)c1C#N [CBK270463]	109.517
COCCCn1c(SCc2csc(-c3ccc(C)cc3)n2)n[nH]c1=O [CBK295657]	103.668
O=c1cc(CN2CCC(Oc3nccnc3OCc3ccc(Cl)c(Cl)c3)CC2)[nH]c(=O)[nH]1 [CBK153784]	111.176
CCNC(=O)COc1ccc(C=Cc2nc(-c3ccccc3)c(C(=O)O)s2)cc1OCC [CBK296644]	150.422
CN1CCN(C(=O)c2cnn(-c3ccccc3)c2NC(=O)c2ccc(F)cc2)CC1 [CBK265198]	137.613
O=C(c1cncnc1)N1Cc2ccccc2C1 [CBK200223]	67.768
Cc1c(C(=O)N2CCNCC2C)nnn1-c1ccc2ncccc2c1 (stereo not shown) [CBK304473]	146.794
CNC(=O)C1(Cc2ccccc2-c2ccccc2)CCN(C(=O)c2cccc(OC)c2)CC1 [CBK285922]	126.815
O=C(O)C1Nc2ccc(Oc3ccccc3)cc2C2C=CCC12 (stereo not shown) [CBK286542]	122.774
O=C(C1CCN(S(=O)(=O)c2ccc(F)cc2)C1)N1CCN(C2CCCC2)CC1 (stereo not shown) [CBK285703]	129.516
O=C(c1cc(F)c(F)cc1F)N1CCC2(CCCN(C(=O)c3cccc4[nH]ccc34)C2)C1 (stereo not shown) [CBK131544]	113.45
CC(=O)OCc1nc2cc(F)c(F)cc2[nH]1 [CBK110117]	144.53
CC(=O)N1C[C@H]2CCCN(S(=O)(=O)c3cccs3)[C@H]2C1 [CBK285275]	118.635
CCCCN(C)c1c(CC)nc2ccc(C(=O)NCCN3CCCC3)cn12 [CBK145440]	127.538
CCOC(=O)c1cc2c3ccccc3n(CC)c2nc1N [CBK100822]	137.918
Cc1cccn2c(CN3CCCC(O)C3)c(C(=O)N3CCCCC3)nc12 (stereo not shown) [CBK307342]	116.438
CC(NC(=O)CCc1cnn(C)c1)c1nc(-c2ccncc2)cs1 (stereo not shown) [CBK305496]	126.163
O=C(Cc1ccsc1)N1CCC[C@@H]1Cn1c(=O)oc2ccccc21 [CBK284530]	155.454

Among those listed so far, 3 contain an aryl methoxy group.
Structure (SMILES)	% of control remaining [%]
COc1ccc(Cn2nnnc2C(CC(C)C)N2CCC(C(N)=O)CC2)cc1 (stereo not shown) [CBK084783]	113.651
CCN(Cc1ncc[nH]1)[C@H]1CCO[C@@H](c2ccccc2-c2ccc(OC)cc2)C1 [CBK285842]	128.444
CNC(=O)C1(Cc2ccccc2-c2ccccc2)CCN(C(=O)c2cccc(OC)c2)CC1 [CBK285922]	126.815

Carrying on.

Structure (SMILES)	% of control remaining [%]
Cc1ncccc1OC1(C(=O)NCc2n[nH]c3c2CCC3)CCNCC1 [CBK307057]	140.547
CCN(CC)CCN1CCN(c2cc(-c3cccc4ccccc34)ncn2)CC1 [CBK091196]	199.623
OC(CSc1ccccc1)CN1CCC(Nc2nccc(C(F)(F)F)n2)CC1 (stereo not shown) [CBK074648]	126.921
CN(C)CC(C)(C)CNC=C1C(=O)CC(C)(C)CC1=O [CBK262046]	100
CC1=CC(C)C(C(=O)O)C(C(=O)NCc2cccnc2)C1 (stereo not shown) [CBK293964]	126.845
O=C(c1nccs1)C1CCN(C(=O)C2(c3ccccc3)CC2)CC1 [CBK284206]	114.443
Fc1ccc(C2C=C(c3ccc(F)cc3F)Nc3ncnn32)cc1 (stereo not shown) [CBK288095]	137.624
O=C(O)CCc1ccc(NS(=O)(=O)c2ccc(N3CCCC3=O)cc2)cc1 [CBK299788]	111.102
Cc1ccc(S(=O)(=O)NCc2ccc(-c3nn(C)cc3-c3ccncc3C)cc2)cc1 [CBK285632]	121.832
CC(C)CN1C[C@H]2N(C)C(=O)c3ccccc3C(=O)[C@@]2(C)C1 [CBK283477]	100.163
Cc1cc(Cl)ccc1Nc1nnc(C)c(=O)[nH]1 [CBK287922]	118.408
Cc1cc(CCCC(=O)NCc2ccc(-c3ccc(C(N)=O)c(C)n3)cc2)ccc1F [CBK286016]	130.639
Cc1c(C(=O)N2CCCC(c3cnccn3)C2)oc2c(F)cccc12 (stereo not shown) [CBK285302]	100.212
O=S(=O)(NCCc1ccccc1)c1cccc2nsnc12 [CBK261128]	109.429
CC[C@H](C)[C@H](NC(N)=O)C(=O)Nc1ccc(F)c([N+](=O)[O-])c1 [CBK297489]	112.064
CCC(=O)N1CCC(c2nc(Cc3cccs3)no2)C1 (stereo not shown) [CBK282968]	106.673
Cc1cccc(NC(=S)N/N=C/c2sccc2C)c1 [CBK022228]	104.905
Cc1nc(CC(=O)N2CCOC(c3ccc(F)cc3)C2)cs1 (stereo not shown) [CBK305759]	110.085
Cc1cc(C)cc(NC(=O)Cc2cc(=O)[nH]c(SCc3ccccc3)n2)c1 [CBK287842]	132.658
COc1ccc(N(C(C)C(=O)Nc2ccc(Cl)c(Cl)c2)S(C)(=O)=O)cc1 (stereo not shown) [CBK266872]	101.253
CN1CCN(C(c2cccs2)c2nnnn2C(C)(C)C)CC1 (stereo not shown) [CBK141702]	114.697
O=c1[nH]nc2cc(SCc3ccc(Cl)cc3)ncn12 [CBK300540]	137.127
OCC1(CNc2ncc(F)c(N3CCCC3)n2)CCOCC1 [CBK306647]	45.2411
c1ccc(CCN2CCN(c3nccnc3OCC3COc4ccccc4O3)CC2)cc1 (stereo not shown) [CBK082794T]	112.207
CC(=O)Nc1ccc(C(=O)N2CCCC(c3cccc(Cc4ccccc4Cl)n3)C2)cc1 (stereo not shown) [CBK286126]	124.824
CCN(Cc1cn2ccc(C)cc2n1)CC1CCOCC1 [CBK306680]	112.834
Cc1nc(C2CCN(C(=O)CCc3ccno3)CC2)c2sccn12 [CBK282239]	151.894

Structure (SMILES)	% of control remaining [%]
[N-]=[N+]=NC1C2OCC(O2)C(OCc2ccccc2)C1O (stereo not shown) [CBK261000]	100
CCNc1cccnc1N1CCN(CCc2cc(C)c(O)c(C)c2)CC1 [CBK024361C]	142.491
COC(=O)c1c(NC(=O)Cn2ccc([N+](=O)[O-])n2)sc2c1CCCC2 [CBK268960]	126.664
CC(=O)Nc1ccc(S(=O)(=O)N2CCN(C(=O)c3ccco3)CC2)cc1 [CBK068319]	141.531
O=C(NCc1ccc(Cl)cc1)N(Cc1cccnc1)Cc1ccc2c(c1)OCO2 [CBK159449]	107.246
Cc1cccc(C2(O)CCN(CC(O)c3ccc(F)cc3)CC2)c1 (stereo not shown) [CBK282504]	136.631
COc1ccc(-c2nc3cc(NC(=O)c4ccccc4Br)ccc3o2)cc1 [CBK264953]	127.722
O=C(Cn1cnc2c(cnn2-c2ccc(F)cc2)c1=O)NCc1ccccc1 [CBK287538]	133.943
Cn1ccc(C(=O)N2CCCC(c3cc4ncccc4[nH]3)C2)n1 (stereo not shown) [CBK283412]	128.086
CCN(CC)C(=O)c1sc2ncccc2c1NS(=O)(=O)c1c(C)noc1C [CBK050617]	87.9602
CC(NC(=O)C1CCN(Cc2cccnc2)CC1)c1ccc(F)cc1 (stereo not shown) [CBK148032]	124.072
Cc1ccc(S(=O)(=O)N2CCN(C(=O)c3ccco3)CC2)cc1 [CBK068166]	124.443
O=S(=O)(/C=C/c1ccccc1)Nc1cccc2[nH]ccc12 [CBK155772]	92.6216
COc1ccc(-c2cc(CC3(NCc4ccccc4O)COC3)no2)cc1 [CBK289697]	121.38
CN1C2CCC1CC(OC(=O)CCN1CCCC1)C2 (stereo not shown) [CBK261466]	129.36
Cc1ccc(C(CC(=O)O)NC(=O)c2ccc(C)c(S(=O)(=O)N3CCCCC3)c2)cc1 (stereo not shown) [CBK297095]	160.934
COc1cccc2c3c([nH]c12)C1(CCCN(CCc2ccc(F)cc2)C1)NCC3 (stereo not shown) [CBK039251]	107.69
O=C(NCc1ccc2c(c1)OCO2)C1(c2ccccc2)CCCC1 [CBK149530]	107.16
CCCNC(=O)Cn1nc(-c2cc3c(s2)CCC3)oc1=O [CBK284713]	168.46
O=C(CCn1ccc2ccc(F)cc21)NC[C@H]1CC[C@H](C(=O)O)CC1 [CBK286666]	129.931
O=C(O)C1CCN(Cc2ccc(Cl)cc2)CC1 [CBK286895]	108.141
COc1ccc(CC(=O)NNC(=O)c2ccc(C(C)(C)C)cc2)cc1 [CBK261700]	101.774
Nc1ncc(-c2ccccc2)nc1NCc1cccnc1 [CBK063452]	109.593
CCCC(=O)c1ccc(S(=O)(=O)N2CCCN(Cc3c[nH]nc3-c3ccc(F)cc3)CC2)cc1 [CBK062911]	96.1032
Cc1ccccc1CC(=O)N1CCCC1c1n[nH]cc1-c1ccncc1 (stereo not shown) [CBK283431]	164.268
